Test results as given in patent US20230272045A1.
Results are given in words; binding and its absence hold for the method and conditions named. Some binding calls cover weakened binding; strength is not graded here.

The chains behind the UniProt entries cited, without tags or fusion partners. Where a name states a change or a piece, a line headed by the entry shows the natural chain unless it says otherwise. A line that says so, or that is headed by a name, gives the form on record, which may keep a tag or linker. Residues count along the entry.
UniProt P24821, residues 23-2201: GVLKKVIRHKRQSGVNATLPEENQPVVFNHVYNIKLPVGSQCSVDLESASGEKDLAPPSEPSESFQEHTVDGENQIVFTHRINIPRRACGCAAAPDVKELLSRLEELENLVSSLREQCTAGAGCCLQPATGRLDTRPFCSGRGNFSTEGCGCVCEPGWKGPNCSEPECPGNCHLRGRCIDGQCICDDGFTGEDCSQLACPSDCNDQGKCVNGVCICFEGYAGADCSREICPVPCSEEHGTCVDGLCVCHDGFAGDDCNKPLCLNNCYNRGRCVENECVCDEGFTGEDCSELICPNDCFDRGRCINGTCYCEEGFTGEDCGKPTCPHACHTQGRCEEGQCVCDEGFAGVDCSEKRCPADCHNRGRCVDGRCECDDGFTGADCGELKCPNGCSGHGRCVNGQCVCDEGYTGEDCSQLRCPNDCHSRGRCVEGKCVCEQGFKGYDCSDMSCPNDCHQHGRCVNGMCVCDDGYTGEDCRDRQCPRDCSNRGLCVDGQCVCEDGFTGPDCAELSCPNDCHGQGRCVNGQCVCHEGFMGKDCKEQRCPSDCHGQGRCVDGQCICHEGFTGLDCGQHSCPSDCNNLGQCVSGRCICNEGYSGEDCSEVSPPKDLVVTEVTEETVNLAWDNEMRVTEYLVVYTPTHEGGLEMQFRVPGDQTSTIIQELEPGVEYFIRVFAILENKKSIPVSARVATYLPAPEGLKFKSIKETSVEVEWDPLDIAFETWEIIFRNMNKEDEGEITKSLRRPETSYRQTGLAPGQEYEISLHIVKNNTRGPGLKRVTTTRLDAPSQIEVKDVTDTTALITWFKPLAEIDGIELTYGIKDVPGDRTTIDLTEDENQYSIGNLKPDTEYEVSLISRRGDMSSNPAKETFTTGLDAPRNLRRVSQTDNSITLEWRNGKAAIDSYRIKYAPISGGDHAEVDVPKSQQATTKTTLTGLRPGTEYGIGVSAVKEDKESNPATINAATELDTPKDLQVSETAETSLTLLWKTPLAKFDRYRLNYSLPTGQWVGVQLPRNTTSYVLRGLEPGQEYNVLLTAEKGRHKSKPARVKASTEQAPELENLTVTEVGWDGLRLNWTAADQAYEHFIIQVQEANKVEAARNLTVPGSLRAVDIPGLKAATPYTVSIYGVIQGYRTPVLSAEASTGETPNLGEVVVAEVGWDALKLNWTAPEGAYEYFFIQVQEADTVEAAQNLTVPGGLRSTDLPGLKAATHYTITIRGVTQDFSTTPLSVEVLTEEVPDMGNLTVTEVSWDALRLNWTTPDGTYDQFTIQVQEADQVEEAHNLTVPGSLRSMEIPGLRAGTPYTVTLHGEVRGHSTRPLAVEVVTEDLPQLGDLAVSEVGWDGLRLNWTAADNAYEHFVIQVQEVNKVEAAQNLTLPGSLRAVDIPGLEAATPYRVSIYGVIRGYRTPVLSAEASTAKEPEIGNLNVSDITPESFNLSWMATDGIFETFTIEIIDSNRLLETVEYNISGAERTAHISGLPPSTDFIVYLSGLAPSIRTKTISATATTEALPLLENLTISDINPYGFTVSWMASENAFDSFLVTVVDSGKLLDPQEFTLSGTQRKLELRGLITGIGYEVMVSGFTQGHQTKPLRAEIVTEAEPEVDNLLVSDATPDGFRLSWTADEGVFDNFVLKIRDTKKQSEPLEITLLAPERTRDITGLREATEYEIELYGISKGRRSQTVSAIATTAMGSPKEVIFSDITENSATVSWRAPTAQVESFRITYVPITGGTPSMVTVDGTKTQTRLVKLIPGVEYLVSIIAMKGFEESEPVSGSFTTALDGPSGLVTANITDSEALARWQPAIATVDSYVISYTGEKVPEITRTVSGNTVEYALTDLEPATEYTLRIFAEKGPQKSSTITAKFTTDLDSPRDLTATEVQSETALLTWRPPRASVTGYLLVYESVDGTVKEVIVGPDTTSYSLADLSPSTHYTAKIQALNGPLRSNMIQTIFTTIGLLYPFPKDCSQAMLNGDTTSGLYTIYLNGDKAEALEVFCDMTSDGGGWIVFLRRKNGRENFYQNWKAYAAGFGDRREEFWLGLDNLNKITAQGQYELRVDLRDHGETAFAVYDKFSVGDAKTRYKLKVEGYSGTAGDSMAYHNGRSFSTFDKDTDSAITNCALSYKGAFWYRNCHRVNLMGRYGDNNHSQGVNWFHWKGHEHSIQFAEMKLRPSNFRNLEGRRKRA
UniProt P04004, residues 20-478: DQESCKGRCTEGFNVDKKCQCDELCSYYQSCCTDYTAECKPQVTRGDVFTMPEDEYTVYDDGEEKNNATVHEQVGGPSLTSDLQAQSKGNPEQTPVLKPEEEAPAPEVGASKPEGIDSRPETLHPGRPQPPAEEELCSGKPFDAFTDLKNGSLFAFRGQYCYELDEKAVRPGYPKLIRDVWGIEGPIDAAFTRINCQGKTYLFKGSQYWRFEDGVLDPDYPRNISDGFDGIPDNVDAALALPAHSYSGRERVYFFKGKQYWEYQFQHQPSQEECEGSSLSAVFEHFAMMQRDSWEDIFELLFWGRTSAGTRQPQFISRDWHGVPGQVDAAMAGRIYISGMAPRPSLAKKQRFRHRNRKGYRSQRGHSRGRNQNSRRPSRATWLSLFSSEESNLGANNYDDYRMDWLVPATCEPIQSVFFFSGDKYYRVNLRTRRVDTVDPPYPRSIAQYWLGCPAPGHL
UniProt P02671: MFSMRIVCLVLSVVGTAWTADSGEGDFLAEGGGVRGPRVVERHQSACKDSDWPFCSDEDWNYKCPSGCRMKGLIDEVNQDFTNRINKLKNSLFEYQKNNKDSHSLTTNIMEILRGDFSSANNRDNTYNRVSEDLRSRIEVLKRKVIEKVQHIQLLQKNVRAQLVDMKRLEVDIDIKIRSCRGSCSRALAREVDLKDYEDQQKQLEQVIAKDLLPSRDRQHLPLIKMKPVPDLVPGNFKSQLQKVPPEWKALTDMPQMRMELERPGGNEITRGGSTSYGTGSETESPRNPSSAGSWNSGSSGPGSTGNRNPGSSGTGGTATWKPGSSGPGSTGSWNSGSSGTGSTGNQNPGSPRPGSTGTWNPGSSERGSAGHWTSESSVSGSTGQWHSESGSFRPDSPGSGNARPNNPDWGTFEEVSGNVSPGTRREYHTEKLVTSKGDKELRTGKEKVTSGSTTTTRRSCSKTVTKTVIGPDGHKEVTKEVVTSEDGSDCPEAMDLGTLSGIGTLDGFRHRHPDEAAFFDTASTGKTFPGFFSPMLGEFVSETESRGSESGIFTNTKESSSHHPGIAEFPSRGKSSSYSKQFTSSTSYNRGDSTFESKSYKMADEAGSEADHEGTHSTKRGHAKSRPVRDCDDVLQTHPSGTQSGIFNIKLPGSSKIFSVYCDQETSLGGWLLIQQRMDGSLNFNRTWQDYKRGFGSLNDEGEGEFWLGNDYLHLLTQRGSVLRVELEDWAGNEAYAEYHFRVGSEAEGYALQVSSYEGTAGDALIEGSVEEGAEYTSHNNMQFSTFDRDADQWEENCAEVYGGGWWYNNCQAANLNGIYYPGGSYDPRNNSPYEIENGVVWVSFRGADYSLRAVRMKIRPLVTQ
UniProt P02675: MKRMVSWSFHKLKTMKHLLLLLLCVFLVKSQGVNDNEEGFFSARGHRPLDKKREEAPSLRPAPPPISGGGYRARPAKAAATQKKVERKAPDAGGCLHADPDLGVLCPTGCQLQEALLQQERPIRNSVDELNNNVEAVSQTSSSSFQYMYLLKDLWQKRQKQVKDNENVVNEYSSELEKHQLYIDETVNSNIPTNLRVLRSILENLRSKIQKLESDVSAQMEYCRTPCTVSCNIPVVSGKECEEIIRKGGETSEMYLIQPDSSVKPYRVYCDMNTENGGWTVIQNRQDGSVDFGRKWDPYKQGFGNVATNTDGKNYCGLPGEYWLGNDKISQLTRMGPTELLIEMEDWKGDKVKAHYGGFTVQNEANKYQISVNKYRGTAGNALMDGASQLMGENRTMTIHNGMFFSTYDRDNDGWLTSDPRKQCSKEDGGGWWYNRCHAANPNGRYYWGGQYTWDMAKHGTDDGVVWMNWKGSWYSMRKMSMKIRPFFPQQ
human plasma fibronectin (P02751, form named): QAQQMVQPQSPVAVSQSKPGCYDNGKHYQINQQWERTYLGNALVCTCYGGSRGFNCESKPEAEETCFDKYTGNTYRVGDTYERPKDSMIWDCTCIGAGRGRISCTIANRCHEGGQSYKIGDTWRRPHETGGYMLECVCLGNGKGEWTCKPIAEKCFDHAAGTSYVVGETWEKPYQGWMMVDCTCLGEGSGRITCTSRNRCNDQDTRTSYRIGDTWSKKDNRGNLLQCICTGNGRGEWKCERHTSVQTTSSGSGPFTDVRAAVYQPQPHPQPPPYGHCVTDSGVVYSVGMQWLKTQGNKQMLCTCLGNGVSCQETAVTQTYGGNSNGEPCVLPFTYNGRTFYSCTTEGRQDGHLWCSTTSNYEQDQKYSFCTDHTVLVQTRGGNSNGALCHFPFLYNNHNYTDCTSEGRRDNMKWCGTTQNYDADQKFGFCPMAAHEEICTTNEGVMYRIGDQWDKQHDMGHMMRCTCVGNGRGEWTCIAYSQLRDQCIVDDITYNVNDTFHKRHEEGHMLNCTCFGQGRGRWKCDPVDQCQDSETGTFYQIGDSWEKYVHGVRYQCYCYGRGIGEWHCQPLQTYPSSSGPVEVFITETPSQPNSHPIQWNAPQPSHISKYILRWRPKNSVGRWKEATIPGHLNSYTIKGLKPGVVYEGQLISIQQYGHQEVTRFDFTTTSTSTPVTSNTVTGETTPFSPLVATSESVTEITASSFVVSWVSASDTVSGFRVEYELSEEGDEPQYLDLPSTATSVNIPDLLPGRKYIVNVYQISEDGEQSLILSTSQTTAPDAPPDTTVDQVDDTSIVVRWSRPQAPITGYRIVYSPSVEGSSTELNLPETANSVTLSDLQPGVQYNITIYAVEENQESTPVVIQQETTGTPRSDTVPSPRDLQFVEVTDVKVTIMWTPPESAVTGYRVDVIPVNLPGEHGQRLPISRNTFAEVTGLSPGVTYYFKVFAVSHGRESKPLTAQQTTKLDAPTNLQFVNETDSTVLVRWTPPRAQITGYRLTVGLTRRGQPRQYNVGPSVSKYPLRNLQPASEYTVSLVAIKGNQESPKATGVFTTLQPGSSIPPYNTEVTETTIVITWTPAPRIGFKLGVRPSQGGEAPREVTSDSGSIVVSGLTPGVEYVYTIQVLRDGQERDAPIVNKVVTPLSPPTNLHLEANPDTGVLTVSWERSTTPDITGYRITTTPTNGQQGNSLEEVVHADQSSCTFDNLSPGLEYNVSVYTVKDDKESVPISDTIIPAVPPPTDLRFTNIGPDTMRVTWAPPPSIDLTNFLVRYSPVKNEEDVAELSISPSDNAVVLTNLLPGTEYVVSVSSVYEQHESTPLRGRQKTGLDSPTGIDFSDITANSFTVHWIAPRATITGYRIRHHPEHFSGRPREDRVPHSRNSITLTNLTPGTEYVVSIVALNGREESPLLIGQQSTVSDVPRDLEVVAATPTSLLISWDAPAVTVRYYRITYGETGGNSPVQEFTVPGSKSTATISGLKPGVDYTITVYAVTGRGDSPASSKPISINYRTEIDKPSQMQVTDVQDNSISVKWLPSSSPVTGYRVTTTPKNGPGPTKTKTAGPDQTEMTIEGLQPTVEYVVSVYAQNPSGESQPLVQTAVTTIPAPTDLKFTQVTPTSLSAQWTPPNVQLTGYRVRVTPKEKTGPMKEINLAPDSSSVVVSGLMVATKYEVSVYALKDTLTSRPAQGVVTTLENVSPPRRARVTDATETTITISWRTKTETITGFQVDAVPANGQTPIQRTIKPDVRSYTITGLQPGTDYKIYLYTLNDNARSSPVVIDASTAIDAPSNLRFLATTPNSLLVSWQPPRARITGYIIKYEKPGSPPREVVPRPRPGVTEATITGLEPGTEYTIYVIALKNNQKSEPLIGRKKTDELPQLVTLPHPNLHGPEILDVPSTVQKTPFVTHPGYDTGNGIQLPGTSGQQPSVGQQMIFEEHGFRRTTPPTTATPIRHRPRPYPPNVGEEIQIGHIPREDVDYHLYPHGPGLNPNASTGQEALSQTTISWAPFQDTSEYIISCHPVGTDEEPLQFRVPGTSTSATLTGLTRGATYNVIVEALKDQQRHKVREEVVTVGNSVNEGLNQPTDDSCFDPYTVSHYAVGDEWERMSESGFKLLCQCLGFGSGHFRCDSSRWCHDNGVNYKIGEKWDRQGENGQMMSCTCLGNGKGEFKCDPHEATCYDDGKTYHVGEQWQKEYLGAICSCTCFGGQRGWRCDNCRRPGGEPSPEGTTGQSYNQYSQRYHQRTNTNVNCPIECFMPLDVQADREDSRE

Experiments:
human tenascin C (human) [1] = molecular target: human tenascin C (human) (UniProt P24821); assay: ELISA; ECM protein coated at 100 nM, BMP-2 0.1 to 100 nM
[2] = molecular target: human vitronectin (human) (UniProt P04004); assay: ELISA
human fibrinogen (human) = human fibrinogen (human) (UniProt P02671+P02675+P02679); assay: ELISA
human tenascin C (human) [3] = molecular target: human tenascin C (human) (UniProt P24821); assay: ELISA
[4] = molecular target: human plasma fibronectin (human) (UniProt P02751); assay: ELISA

Row | binding (human tenascin C (human) [1]) | binding [2] | binding (human fibrinogen (human)) | binding (human tenascin C (human) [3]) | binding [4] | Binder
1 | binds | – | – | – | – | BMP-2 (bone morphogenetic protein-2, Peprotech) (ligand, murine, UniProt P21274 281-394, looked up) QAKHKQRKRLKSSCKRHPLYVDFSDVGWNDWIVAPPGYHAFYCHGECPFPLADHLNSTNHAIVQTLVNSVNSKIPKACCVPTELSAISMLYLDENEKVVLKNYQDMVVEGCGCR
2 | – | binds | binds | binds | binds | amphiregulin (AREG) (ligand, UniProt P15514 101-198, looked up) SVRVEQVVKPPQNKTESENTSDKPKRKKKGGKNGKNRRNRKKKNPCNAEFQNFCIHGECKYIEHLEAVTCKCQQEYFGERCGEKSMKTHSMIDSSLSK
3 | – | binds | – | binds | binds | neurturin (NRTN) (ligand, UniProt Q99748 96-197, looked up) ARLGARPCGLRELEVRVSELGLGYASDETVLFRYCAGACEAAARVYDLGLRRLRQRRRLRRERVRAQPCCRPTAYEDEVSFLDAHSRYHTVHELSARECACV
